Laboratory results from patent US20250368606A1, “CRYSTALLINE FORMS AND SALT FORMS OF A KINASE INHIBITOR” (Exelixis, Inc., priority 2021, published 2025).
At least one read-out could not be matched to a standard name with certainty.

Test: Visual (aqueous) solubility estimation
Format: physicochemical
Conditions: compared with Compound 1 Form A
Description: Solubility Estimation: Aliquots of various solvents were added to measured amounts of Compound 1 with agitation (typically sonication) at stated temperatures until complete dissolution was achieved, as judged by visual observation.
Aqueous Solubility Estimation: Aliquots of water were added to measured amounts of various Compound 1 salts with sonication.

## CNC(=O)c1cc2c(Oc3ccc(NC(=O)C4(C(=O)Nc5ccc(F)cc5)CC4)cc3)ccnc2cc1OC [Amorphous Compound 1, N-(4-fluorophenyl)-N-(4-((7-methoxy-6-(methylcarbamoyl)quinolin-4-yl)oxy)phenyl)cyclopropane-1,1-dicarboxamide]
  visual improvement in aqueous solubility relative to Form A: No visual improvement
